No constants are given. Whether binding was seen depends on the method and setting. Binding seen in cells or lysates may run through a third protein. Some results given as binding are weak or reduced against the parent protein; the word gives no strength.
Biological target: FLAG-L148S (GPR54 L148S mutant) (human) (UniProt Q969F8)
Assay: co-IP; HEK 293 cells co-transfected with FLAG-L148S and β-arrestin-1-GFP or β-arrestin-2-GFP; untreated or stimulated with 100 nM Kp-10 for 5 min; FLAG-L148S immunoprecipitated from 750 µg of total protein with FLAG-agarose beads; immunoblot with anti-GFP

Chains of the proteins cited; added tags and fusions are not shown. Lines headed by an entry give the natural chain unless they say otherwise; changes in a name come on top.
UniProt Q969F8: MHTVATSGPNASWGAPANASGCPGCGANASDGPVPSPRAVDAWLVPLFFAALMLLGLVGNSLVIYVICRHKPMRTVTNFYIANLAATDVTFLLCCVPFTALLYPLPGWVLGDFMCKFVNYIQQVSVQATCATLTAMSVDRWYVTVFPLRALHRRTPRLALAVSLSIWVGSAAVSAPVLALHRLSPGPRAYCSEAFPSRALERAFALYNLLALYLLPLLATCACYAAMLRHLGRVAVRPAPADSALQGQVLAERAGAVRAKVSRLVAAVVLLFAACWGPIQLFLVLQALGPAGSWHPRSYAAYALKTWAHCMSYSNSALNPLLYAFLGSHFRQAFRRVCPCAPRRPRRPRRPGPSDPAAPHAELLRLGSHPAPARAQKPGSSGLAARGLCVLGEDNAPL
UniProt P29066: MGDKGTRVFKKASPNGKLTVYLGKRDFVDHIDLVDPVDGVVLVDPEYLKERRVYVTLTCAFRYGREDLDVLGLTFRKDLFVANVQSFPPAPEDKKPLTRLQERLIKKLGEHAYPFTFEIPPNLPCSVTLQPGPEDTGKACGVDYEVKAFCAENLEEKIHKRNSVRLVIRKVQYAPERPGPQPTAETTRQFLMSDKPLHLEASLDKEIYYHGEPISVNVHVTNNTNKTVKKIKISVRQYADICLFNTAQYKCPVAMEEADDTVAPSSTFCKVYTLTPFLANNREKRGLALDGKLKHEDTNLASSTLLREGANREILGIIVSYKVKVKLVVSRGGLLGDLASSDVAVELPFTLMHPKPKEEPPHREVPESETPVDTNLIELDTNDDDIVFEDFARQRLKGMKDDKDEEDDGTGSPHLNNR
UniProt P29067: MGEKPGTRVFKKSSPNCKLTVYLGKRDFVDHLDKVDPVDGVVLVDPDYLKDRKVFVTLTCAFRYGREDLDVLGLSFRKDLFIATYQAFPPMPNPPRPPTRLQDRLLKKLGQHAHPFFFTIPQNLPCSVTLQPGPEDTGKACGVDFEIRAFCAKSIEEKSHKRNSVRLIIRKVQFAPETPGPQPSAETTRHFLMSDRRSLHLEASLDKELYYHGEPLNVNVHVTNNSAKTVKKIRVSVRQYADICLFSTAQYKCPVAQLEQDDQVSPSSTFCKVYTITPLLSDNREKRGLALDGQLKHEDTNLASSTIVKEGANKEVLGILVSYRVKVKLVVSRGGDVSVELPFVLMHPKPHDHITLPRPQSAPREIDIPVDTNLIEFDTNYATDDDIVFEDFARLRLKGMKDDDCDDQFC

binding	Substance
binds	β-arrestin-1-GFP (from UniProt P29066 1-418)
binds	β-arrestin-2-GFP (from UniProt P29067 1-410)
